# Experimental data published in patent publication EP0986401B1, “P-SELECTIN TRANSLOCATION TO VASCULAR EPITHELIAL LUMEN BY IONIZING RADIATION” (ARCH DEVELOPMENT CORPORATION, priority 1997, dated 1998).
# Test system: P-selectin
# Assay: P-selectin translocation in irradiated HUVEC with microtubule or actin agents, confocal immunofluorescence
# Type: cell-based, human
structure (smiles),measurement,value
CN[C@H]1CCc2cc(OC)c(OC)c(OC)c2-c2ccc(OC)c(=O)cc21 [colcemid],8-fold increase in P-selectin immunofluorescence on the cell surface,abrogated
same,x-ray induced translocation of P-selectin,inhibited
